Drawing on PubChem BioAssay AID330 (DTP/NCI, 2004), this text covers T/C and survivor count for 20 compounds.

This experiment concerns P388 leukemia ip, CD2F1 mice, survival T/C. In words: NCI In Vivo Anticancer Drug Screen. Data for tumor model P388 Leukemia (intraperitoneal) in CD2F1 (CDF1) mice. The conditions noted are these: T/C endpoint: median survival time, higher T/C = longer survival.
[1] abbreviates: dose: 200.0 mg/kg/injection, schedule: Q01DX005 (ip), vehicle: saline with Tween-80.
[2] abbreviates: dose: 400.0 mg/kg/injection, schedule: Q01DX009 (ip), vehicle: saline with Tween-80.
Setting [3] is: dose: 200.0 mg/kg/injection, schedule: Q01DX009 (ip), vehicle: saline.
Where [4] appears, read: dose: 120.0 mg/kg/injection, schedule: Q01DX005 (ip), vehicle: saline with Tween-80.
The mark [5] stands for this setting: dose: 200.0 mg/kg/injection, schedule: Q01DX005 (ip), vehicle: Klucel (hydroxypropylcellulose) (HPC).
The mark [6] stands for this setting: dose: 30.0 mg/kg/injection, schedule: Q01DX005 (ip), vehicle: saline with Tween-80.
Setting [7] is: dose: 60.0 mg/kg/injection, schedule: Q01DX005 (ip), vehicle: saline with Tween-80.
The mark [8] stands for this setting: dose: 240.0 mg/kg/injection, schedule: Q01DX005 (ip), vehicle: saline with Tween-80.

SMILES strings stand for the structures. The list is a part of this screen's results and no random one: it gathers tests that were run many times, whatever their T/C, doses with no T/C, and many T/C values between a quarter and a half above the control. Further doses and runs are listed elsewhere. T/C: endpoint of the treated group in % of that of the vehicle group. Some entries give survivors of the animals treated and no T/C: the source files T/C as zero there, which appears to mark a toxic dose or a test without result, not a measured value. Some survivor counts are full or nearly so, which does not show that the dose was tolerated: the source hardly ever lists a survival T/C far under the control, and the zero likely stands for such cases as well. Survivors were counted at the toxicity check, usually on the fifth day, unless a day is given; later deaths do not show. Schedule codes are those of the source, read here as Q, the interval in days (D) or hours (H), X, the number of doses. Some entries were tested several times; the values are given in rising order. Some molecules as drawn cover several salts, stereoisomers or complexes of the source; a dose is that of the sample tested. For survival time, this PubChem deposit counts one and a half times the control or more as active, and values a quarter to a half above the control carry no call in these data; other NCI protocols may use other cut-offs. Some T/C values carry the count of animals alive at the toxicity check (mostly the fifth day); without a count, all were alive then.

For `CCC1(O)CN2CCc3c([nH]c4ccccc34)C(C(=O)OC)(c3cc4c(cc3OC)N(C)C3C(O)(C(=O)OC)C(OC(C)=O)C5(CC)C=CCN6CCC43C65)CC(C2=O)C1O` (stereo unspecified), the T/C reads like this: (dose: 50.0 mg/kg/injection, schedule: Q01DX001 (ip), vehicle: distilled water + Tween-80) 130 % of control; (dose: 100.0 mg/kg/injection, schedule: Q01DX001 (ip), vehicle: distilled water + Tween-80) 144 % of control; (dose: 200.0 mg/kg/injection, schedule: Q01DX001 (ip), vehicle: suspension in saline) 131 % of control. Also, the survivor count is, setting by setting: (dose: 400.0 mg/kg/injection, schedule: Q01DX001 (ip), vehicle: distilled water + Tween-80) 0 of 5; (dose: 400.0 mg/kg/injection, schedule: Q01DX001 (ip), vehicle: suspension in saline) 0 of 3.
For the compound `CNC1CCCc2c(O)cccc21` (stereo unspecified), the survivor count (dose: 200.0 mg/kg/injection, schedule: Q04DX003 (ip), vehicle: Klucel (hydroxypropylcellulose) (HPC)) is given as 2 of 6.
Take `Cc1cc(NC(=O)c2ccc(NC(=O)c3ccc(N)cc3)cc2)ccc1N=Nc1ccc2c(O)c(N=Nc3ccc(S(=O)(=O)O)cc3C)c(S(=O)(=O)O)cc2c1`: under setting [1], the T/C was 126 % of control.
For the compound `COc1ccccc1N1C(=O)CSC1=S`, under setting [2], the survivor count is 5 of 6.
Turning to `COc1cc2c(cc1OC)C(CN)C2` (stereo unspecified), the survivor count under setting [3] is 2 of 6.
As for `O=c1cc[nH]c(=S)[nH]1.[Cu+2]`, the survivor count by setting is: (dose: 6.25 mg/kg/injection, schedule: Q01DX009 (ip), vehicle: DMSO) 6 of 6; (dose: 25.0 mg/kg/injection, schedule: Q01DX009 (ip), vehicle: DMSO) 0 of 6; (dose: 50.0 mg/kg/injection, schedule: Q01DX009 (ip), vehicle: DMSO) 0 of 6; (dose: 100.0 mg/kg/injection, schedule: Q01DX009 (ip), vehicle: DMSO) 0 of 6; (dose: 200.0 mg/kg/injection, schedule: Q01DX009 (ip), vehicle: DMSO) 0 of 6.
As to `Cc1ccnc(NC(=O)Nc2cc(F)ccc2F)c1`, the survivor count under setting [4] is 6 of 6.
Turning to `C=C(C)C(=O)O[C@H]1[C@H]2[C@H](OC(=O)[C@H]2C)[C@H](O)[C@@H](C)[C@@H]2C=CC(=O)[C@]21C`, the T/C runs as follows: (dose: 15.0 mg/kg/injection, schedule: Q01DX009 (ip), vehicle: saline with Tween-80) 130 % of control; (dose: 30.0 mg/kg/injection, schedule: Q01DX009 (ip), vehicle: saline with Tween-80) 140 % of control [5 of 6 alive]; (dose: 60.0 mg/kg/injection, schedule: Q01DX009 (ip), vehicle: saline with Tween-80) 130 % of control.
In the case of `C=CCCn1nnc(-c2ccccc2)n1`, for the setting “dose: 100.0 mg/kg/injection, schedule: Q04DX003 (ip), vehicle: saline with Tween-80”, the T/C is 130 % of control.
Consider `Cc1cc(N(CCCl)CCCl)ccc1CN1CCCN(Cc2ccc(N(CCCl)CCCl)cc2C)C1c1ccccc1O`, for which the T/C was 130 % of control (dose: 6.25 mg/kg/injection, schedule: Q01DX009 (ip), vehicle: saline with Tween-80); 146 % of control (dose: 25.0 mg/kg/injection, schedule: Q01DX009 (ip), vehicle: saline with Tween-80); 132 % of control (dose: 50.0 mg/kg/injection, schedule: Q01DX009 (ip), vehicle: saline with Tween-80).
As to `CCCCOCCOCCOCCOCCCN1C(=O)C2C3C=CC(C3)C2C1=O` (stereo unspecified), under setting [5], the survivor count is recorded as 0 of 5.
Take `CN(C)C(=S)N1C(=O)C2C3CCC(O3)C2C1=O` (stereo unspecified): the survivor count (dose: 15.0 mg/kg/injection, schedule: Q01DX005 (ip), vehicle: saline with Tween-80) is 0 of 6; the survivor count under setting [6] is 0 of 6; the survivor count under setting [7] is 0 of 6; the survivor count under setting [4] is given as 0 of 6; the survivor count under setting [8] is given as 0 of 6.
With `O=S1(=O)C2CCC(Cl)C1CCC2Cl` (stereo unspecified), the survivor count (dose: 300.0 mg/kg/injection, schedule: Q04DX003 (ip), vehicle: Klucel (hydroxypropylcellulose) (HPC)) was 2 of 6.
With `Cc1cccc(/C=N/Nc2ccc3ccccc3n2)n1`, the survivor count (dose: 50.0 mg/kg/injection, schedule: Q01DX005 (ip), vehicle: Klucel (hydroxypropylcellulose) (HPC)) is 6 of 6; the survivor count (dose: 100.0 mg/kg/injection, schedule: Q01DX005 (ip), vehicle: Klucel (hydroxypropylcellulose) (HPC)) is 1 of 6; the survivor count under setting [5] was 0 of 6.
On to `C=C1C(=O)OC2/C=C(\C)CC/C=C(/C(=O)OC)C(OC(=O)C(C)C(C)O)C(OC(=O)C(C)(O)C(C)O)C12` (stereo unspecified), for which the T/C was 134 % of control (dose: 3.0 mg/kg/injection, schedule: Q01DX009 (ip), vehicle: Klucel (hydroxypropylcellulose) (HPC)) and 125 % of control (dose: 4.0 mg/kg/injection, schedule: Q01DX009 (ip), vehicle: Klucel (hydroxypropylcellulose) (HPC)). In addition, the survivor count is, setting by setting: (dose: 16.0 mg/kg/injection, schedule: Q01DX009 (ip), vehicle: Klucel (hydroxypropylcellulose) (HPC)) 3 of 6; (dose: 24.0 mg/kg/injection, schedule: Q01DX009 (ip), vehicle: Klucel (hydroxypropylcellulose) (HPC)) 4 of 6; (dose: 32.0 mg/kg/injection, schedule: Q01DX009 (ip), vehicle: Klucel (hydroxypropylcellulose) (HPC)) 0 of 6.
On to `O=c1[nH]nnc2ccccc12`, for which the survivor count by setting is: (dose: 200.0 mg/kg/injection, schedule: Q01DX009 (ip), vehicle: Klucel (hydroxypropylcellulose) (HPC)) 0 of 6; (dose: 400.0 mg/kg/injection, schedule: Q01DX009 (ip), vehicle: Klucel (hydroxypropylcellulose) (HPC)) 0 of 6.
Consider `CC(C)OC(=O)C1(N)CCCC1`, for which the survivor count (dose: 100.0 mg/kg/injection, schedule: Q01DX009 (ip), vehicle: saline with Tween-80) is reported as 3 of 6; the survivor count (dose: 200.0 mg/kg/injection, schedule: Q01DX009 (ip), vehicle: saline with Tween-80) is given as 6 of 6; the survivor count under setting [3] is on record as 5 of 6; the survivor count under setting [2] was 5 of 6. Also, the T/C (dose: 400.0 mg/kg/injection, schedule: Q04DX003 (ip), vehicle: saline) was 127 % of control.
Regarding `O=C1C=CC(=CC=C2C=CN(CCCCCCCCCCCO)C=C2)C=C1`, under “dose: 6.25 mg/kg/injection, schedule: Q01DX005 (ip), vehicle: saline with Tween-80”, the T/C is 134 % of control. For the same compound, the survivor count (dose: 25.0 mg/kg/injection, schedule: Q01DX005 (ip), vehicle: saline with Tween-80) was 6 of 6; the survivor count under setting [6] is 6 of 6; the survivor count (dose: 50.0 mg/kg/injection, schedule: Q01DX005 (ip), vehicle: saline with Tween-80) was 4 of 6; the survivor count under setting [7] is listed as 5 of 6; the survivor count (dose: 100.0 mg/kg/injection, schedule: Q01DX005 (ip), vehicle: saline with Tween-80) was 1 of 6; the survivor count under setting [4] was 4 of 6. Further, the survivor count is, setting by setting: under setting [1], 0 of 6; under setting [8], 0 of 6.
In the case of `CCCCCCCCCCCCCCCC[N+](C)(C)CCSc1ccccc1`, the T/C (dose: 6.25 mg/kg/injection, schedule: Q01DX009 (ip), vehicle: distilled water + alcohol) is 109 [4 of 6 alive], 110, 119, 120 % of control. In addition, the survivor count (dose: 12.5 mg/kg/injection, schedule: Q01DX009 (ip), vehicle: distilled water + alcohol) was 0 of 6 and 5 of 6; the survivor count (dose: 25.0 mg/kg/injection, schedule: Q01DX009 (ip), vehicle: distilled water + alcohol) is recorded as 0 of 6; the survivor count (dose: 50.0 mg/kg/injection, schedule: Q01DX009 (ip), vehicle: distilled water + alcohol) is given as 0 of 6; the survivor count (dose: 100.0 mg/kg/injection, schedule: Q01DX009 (ip), vehicle: distilled water + alcohol) is 0 of 6; the survivor count (dose: 200.0 mg/kg/injection, schedule: Q01DX009 (ip), vehicle: distilled water + alcohol) is 0 of 6.
In the case of `COc1ccc(/C=C(/C)[N+](=O)[O-])cc1OC`, the T/C (dose: 50.0 mg/kg/injection, schedule: Q01DX009 (ip), vehicle: saline) is 125 % of control and the T/C (dose: 100.0 mg/kg/injection, schedule: Q01DX009 (ip), vehicle: saline) is 130 % of control.
